In publication PMC10834429, “HRDE-2 drives small RNA specificity for the nuclear Argonaute protein HRDE-1” (Nature Communications, 2024):
These are yes or no findings as the source states them, for the method shown. Binding seen in cells or lysates may run through a third protein. Some results given as binding are weak or reduced against the parent protein; the word gives no strength. Sequences can lack the tags named with a protein. Each block holds one binder with its values, some of them ahead of it.

How the values were obtained:
[1] = target: T1, GFP::3xFLAG::HRDE-1 (C. elegans, UniProt Q09249 1-1032); test: co-IP; lysate of adult animals; anti-FLAG beads precipitate GFP::3xFLAG::HRDE-1, HRDE-2::2xTy1::GFP detected with anti-Ty1; wild-type, mut-2 mutant and hrde-1(HK-AA) backgrounds; band intensities by ImageJ normalized to HRDE-1 immunoprecipitated and to wild-type
T1 construct: HRDE-1/WAGO-9, germline nuclear Argonaute, C. elegans, tagged in the worm strain; Tag ends are read from the strain notation GFP::3xFLAG::HRDE-1; also called HRDE-1/WAGO-9; wild-type HRDE-1; source: C. elegans strain hrde-1(tor125[GFP::3xFLAG::hrde-1]), adult animals, in lysate; not shown: GFP, N-terminal, kept; 3xFLAG, N-terminal, kept
T1 sequence (looked up): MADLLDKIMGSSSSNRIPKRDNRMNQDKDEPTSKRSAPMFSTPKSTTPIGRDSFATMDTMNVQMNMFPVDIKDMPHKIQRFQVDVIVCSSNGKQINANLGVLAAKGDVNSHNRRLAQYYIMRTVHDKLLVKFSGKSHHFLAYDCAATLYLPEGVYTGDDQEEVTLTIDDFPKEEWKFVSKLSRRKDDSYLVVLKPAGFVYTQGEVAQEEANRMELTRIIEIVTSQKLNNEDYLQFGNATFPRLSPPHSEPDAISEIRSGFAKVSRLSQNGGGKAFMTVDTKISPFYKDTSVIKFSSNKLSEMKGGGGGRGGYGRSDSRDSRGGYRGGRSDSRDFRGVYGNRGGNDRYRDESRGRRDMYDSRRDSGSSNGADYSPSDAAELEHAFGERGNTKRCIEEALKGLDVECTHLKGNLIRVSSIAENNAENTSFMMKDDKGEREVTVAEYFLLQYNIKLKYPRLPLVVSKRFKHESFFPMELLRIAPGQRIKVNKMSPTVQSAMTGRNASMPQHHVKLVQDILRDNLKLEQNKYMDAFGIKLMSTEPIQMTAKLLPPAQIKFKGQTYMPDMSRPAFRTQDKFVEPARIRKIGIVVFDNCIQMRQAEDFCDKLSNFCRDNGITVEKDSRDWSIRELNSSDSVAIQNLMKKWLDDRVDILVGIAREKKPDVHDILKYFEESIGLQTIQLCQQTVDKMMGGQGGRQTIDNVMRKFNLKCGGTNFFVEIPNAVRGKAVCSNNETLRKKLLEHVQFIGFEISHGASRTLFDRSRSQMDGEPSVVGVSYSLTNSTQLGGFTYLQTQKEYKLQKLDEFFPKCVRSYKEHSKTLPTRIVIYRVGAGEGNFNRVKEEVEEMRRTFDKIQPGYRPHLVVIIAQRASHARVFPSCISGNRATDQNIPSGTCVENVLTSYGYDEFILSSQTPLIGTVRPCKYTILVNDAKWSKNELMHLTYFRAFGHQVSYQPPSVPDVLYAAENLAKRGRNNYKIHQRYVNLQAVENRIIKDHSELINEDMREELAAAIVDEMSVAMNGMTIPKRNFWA

[2] = target: T2, SIMR-1::mCherry::2xHA (C. elegans) (UniProt O01477); test: co-IP; lysate of ~3500 synchronized adult animals; IP of SIMR-1 probing for HRDE-2 and vice versa; IP buffer 50 mM Tris-Cl pH 7.5, 100 mM KCl, 2.5 mM MgCl2, 0.1% Nonidet P40 substitute; 4 °C, 1 h; western blot
T2 sequence: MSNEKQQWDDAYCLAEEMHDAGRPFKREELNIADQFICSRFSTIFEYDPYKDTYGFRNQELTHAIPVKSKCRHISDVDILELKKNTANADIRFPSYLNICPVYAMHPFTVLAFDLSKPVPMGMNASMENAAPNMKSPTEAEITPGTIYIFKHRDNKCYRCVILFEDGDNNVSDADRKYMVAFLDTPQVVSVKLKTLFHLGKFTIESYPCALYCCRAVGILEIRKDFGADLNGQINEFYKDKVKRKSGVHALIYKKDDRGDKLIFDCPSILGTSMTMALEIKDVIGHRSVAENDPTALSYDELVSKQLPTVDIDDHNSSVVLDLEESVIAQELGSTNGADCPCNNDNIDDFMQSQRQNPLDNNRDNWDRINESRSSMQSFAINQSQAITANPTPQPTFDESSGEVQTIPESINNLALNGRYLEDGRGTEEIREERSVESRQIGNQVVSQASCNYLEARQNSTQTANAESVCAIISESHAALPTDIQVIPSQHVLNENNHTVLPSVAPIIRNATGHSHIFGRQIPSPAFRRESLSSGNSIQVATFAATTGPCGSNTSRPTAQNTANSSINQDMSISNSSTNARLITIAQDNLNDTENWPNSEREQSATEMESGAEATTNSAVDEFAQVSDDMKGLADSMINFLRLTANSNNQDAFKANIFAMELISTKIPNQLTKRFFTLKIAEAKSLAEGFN

[3] = target: T3, HRDE-2::2xTy1::GFP (C. elegans) (UniProt Q22058); test: as above
T3 sequence: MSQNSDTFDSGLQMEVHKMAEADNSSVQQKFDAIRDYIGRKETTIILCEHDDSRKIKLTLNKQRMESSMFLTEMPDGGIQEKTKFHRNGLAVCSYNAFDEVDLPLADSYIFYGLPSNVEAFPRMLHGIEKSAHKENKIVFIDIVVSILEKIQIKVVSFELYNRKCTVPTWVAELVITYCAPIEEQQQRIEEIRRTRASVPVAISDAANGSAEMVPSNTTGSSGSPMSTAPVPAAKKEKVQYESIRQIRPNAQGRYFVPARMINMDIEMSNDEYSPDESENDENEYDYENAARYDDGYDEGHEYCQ

- binding [1]: binds
- binding [2]: no binding
B1: HRDE-2::2xTy1::GFP (natural protein, C. elegans, UniProt Q22058 1-305, looked up)
chain: T3 sequence
notes: HRDE-2 (HRDE-2/ENRI-3), C. elegans, tagged in the worm strain; Tag ends are read from the strain notation HRDE-2::2xTy1::GFP; also called HRDE-2/ENRI-3; source: C. elegans strain hrde-2/enri-3(tag1660[hrde-2/enri-3::2xTy1::GFP]), adult animals, in lysate; not shown: 2xTy1, C-terminal, kept; GFP, C-terminal, kept

- binding [3]: no binding
B2: SIMR-1::mCherry::2xHA (protein, UniProt O01477 1-691)
chain: T2 sequence
